Residue numbers refer to the chain shown, from its start. No constants are given. Whether binding was seen depends on the method and setting. In cells and extracts the contact can be indirect. Some binding calls cover weakened binding; strength is not graded here. Tags and fused reporters may be left off the sequences shown.
Key:
Test in all cases: pull-down; GST-BAD (full length, WT or mutants) expressed in 293T cells; equal amounts of whole cell lysate (50 mM HEPES pH 7.5, 0.15 N NaCl, 1.0% NP-40, 1 mM EDTA, 1 mM EGTA, 10% glycerol) incubated with glutathione beads 4 hr at 4°C; blotted with anti-Bcl-2 or anti-14-3-3
[1] = biological target: T1, GST-BAD S136A, full length (mouse) (UniProt Q61337)
T1 sequence: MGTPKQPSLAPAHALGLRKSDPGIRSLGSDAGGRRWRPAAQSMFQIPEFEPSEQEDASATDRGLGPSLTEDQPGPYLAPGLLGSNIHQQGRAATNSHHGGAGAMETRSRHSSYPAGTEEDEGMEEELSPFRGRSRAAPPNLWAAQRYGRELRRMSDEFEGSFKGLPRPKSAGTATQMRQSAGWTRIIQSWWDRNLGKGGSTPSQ

Chains of the proteins cited; added tags and fusions are not shown.
UniProt P10415: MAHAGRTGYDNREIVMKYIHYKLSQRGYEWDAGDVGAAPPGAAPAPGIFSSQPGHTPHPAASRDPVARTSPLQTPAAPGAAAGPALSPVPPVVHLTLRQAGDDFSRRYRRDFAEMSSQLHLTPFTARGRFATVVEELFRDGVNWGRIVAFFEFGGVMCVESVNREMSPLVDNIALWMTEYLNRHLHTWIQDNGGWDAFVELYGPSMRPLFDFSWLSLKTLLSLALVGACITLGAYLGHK

[2] = biological target: T2, GST-BAD S112/136A, full length (mouse) (UniProt Q61337)
T2 sequence: T1 sequence with S112A

[3] = biological target: T3, GST-BAD S111A, full length (mouse) (UniProt Q61337)
T3 sequence: T1 sequence with S111A, A136S

[4] = biological target: T4, GST-BAD S111/112A, full length (mouse) (UniProt Q61337)
T4 sequence: T1 sequence with S111A, S112A, A136S

[5] = biological target: T5, GST-BAD S111/136A, full length (mouse) (UniProt Q61337)
T5 sequence: T1 sequence with S111A

[6] = biological target: T6, GST-BAD wild type, full length (pEBG-BAD) (mouse) (UniProt Q61337)
T6 sequence: T1 sequence with A136S

[7] = biological target: T7, GST-BAD S111/112/136A, full length (mouse) (UniProt Q61337)
T7 sequence: T1 sequence with S111A, S112A

Measured: binding

Bcl-2 (from UniProt P10415 1-239)
binds: all assays above

Reference: paper PMC3214075
